According to PubChem BioAssay AID2685 (National Center for Advancing Translational Sciences (NCATS), 2010):
The other results are listed elsewhere or left out. Further columns of the screen follow, without active or inactive calls. Most of these compounds were active or inconclusive in the main read-out, so they are no random draw. Potencies come from curve fits of mixed quality, noted in brackets. Where a SMILES comes first, the peptide text is derived from it. The star is where a group is joined. Cbz = O=C(OCc1ccccc1)*

Test: qHTS Assay for Lipid Storage Modulators in Drosophila S3 Cells;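 on cell number change: cells counted by Cell Tracker Red CMTPX staining in the red channel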
Settings: BODIPY lipid droplet fluorescence, 18-24 h; for cell number change: measured here: cell count max response, cells fed with added oleic acid
Summary of the method: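 Drosophila S3 cells got compounds at several concentrations plus oleic acid (400 uM solution). Laser-scanning cytometry with 488 nm excitation read lipid droplets at 500-530 nm and cells at 575-640 nm. Percent activity was relative to 20 uM Triacsin C.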

[1] = measured here: cell number channel AC50, cells fed with added oleic acid
[2] = measured here: lipid fluorescence (Fed channel) AC50, cells fed with added oleic acid

| Compound | cell number change [%] | AC50 [1] | AC50 [2] |
| --- | --- | --- | --- |
| O=C(Nc1ccc2c(c1)OCCO2)C1CCN(S(=O)(=O)c2cccs2)CC1 | 2.64 |  |  |
| Cc1cc(NC(=O)CSc2nnc(NC(=O)C3CC(=O)N(c4ccccc4C)C3)s2)no1 (stereo not given) | -36.7 | 0.116 µM [falling, full curve] | 29.1 µM [falling, single point] |
| O=C(CN(C(=O)CCC(=O)Nc1nccs1)c1ccc(F)cc1)NCCc1ccccc1 | 38.7 | 11.6 µM [rising, partial curve, poor fit] |  |
| CC(NC(=O)c1ccco1)C(=O)O (stereo not given) | -3.93 | 2.06 µM [falling, single point] | 0.0651 µM [rising, full curve, poor fit] |
| c1ccc(-c2cn3c(n2)CCC3)cc1 | 6.58 |  | 5.17 µM [falling, full curve] |
| CCCCCCNc1nc(-c2ccc(OC)cc2)c(CCC(=O)O)s1 | 19.1 |  | 4.11 µM [rising, partial curve] |
| O=C1c2ccccc2C2=Nc3ccccc3SC(c3ccccc3F)C12 (stereo not given) | -78.7 | 29.1 µM [falling, partial curve, poor fit] | 0.92 µM [falling, full curve] |
| CCOC(=O)CN1C(=O)c2ccccc2C1=O | 19.5 |  | 0.0103 µM [rising, full curve, poor fit] |
| COc1ccc(-c2cc(C(=O)OCC(=O)c3c(N)n(C)c(=O)n(C)c3=O)c3ccccc3n2)cc1 | 37 | 0.82 µM [rising, full curve, poor fit] | 29.1 µM [rising, single point] |
| CN(C)S(=O)(=O)c1cccc(-c2cn3cc(Cl)ccc3n2)c1 | 1.84 | 0.461 µM [rising, single point] | 14.6 µM [rising, partial curve] |
| CC(=O)N[C@@H](C)c1nc2ccccc2n1CCCN1CCN(c2nc(-c3ccc(C)cc3)cs2)CC1 | -32.3 | 0.517 µM [falling, partial curve, poor fit] |  |
| O=C1CCCc2nc(N3CCN(Cc4ccccc4)CC3)ncc21 | 44.6 | 5.8 µM [rising, full curve] | 5.17 µM [rising, single point] |
| O=C1NC(c2ccc(Cl)cc2)=COc2ccccc21 | 52.7 | 3.66 µM [rising, full curve, poor fit] | 4.61 µM [rising, full curve, poor fit] |
| COc1ccc(C(c2nnnn2Cc2ccc(F)cc2)N2CCN(c3ccc(OC)cc3)CC2)cc1 (stereo not given) | 2.65 |  | 2.06 µM [rising, full curve, poor fit] |
| COCC1CCCCN1C(=O)c1ccc(OC2CCN(Cc3ccccn3)CC2)cc1 (stereo not given) | -21.8 |  | 7.31 µM [rising, partial curve] |
| S=c1[nH]nc(-c2cccnc2)n1/N=C/c1ccc(Br)s1 | -12.2 |  |  |
| Cn1c(SCc2ccccc2F)nc2cccnc21 | 60.1 |  |  |
| C=CCn1cccc(C(=O)Nc2cc(OC)c(OC)c(OC)c2)c1=O | 1.69 | 6.51 µM [rising, partial curve, poor fit] | 6.51 µM [rising, partial curve] |
| Cc1nc2cccc(C)n2c(=O)c1Cl | 29.2 | 0.206 µM [rising, full curve, poor fit] | 1.3 µM [rising, partial curve] |

Complete entries from above:
O=C(Nc1ccc2c(c1)OCCO2)C1CCN(S(=O)(=O)c2cccs2)CC1 is listed as cell number change [%]: 2.64
CC(NC(=O)c1ccco1)C(=O)O (stereo not given) is listed as cell number change [%]: -3.93; AC50 [1]: 2.06 µM [falling, single point]; AC50 [2]: 0.0651 µM [rising, full curve, poor fit]
O=C1NC(c2ccc(Cl)cc2)=COc2ccccc21 is listed as cell number change [%]: 52.7; AC50 [1]: 3.66 µM [rising, full curve, poor fit]; AC50 [2]: 4.61 µM [rising, full curve, poor fit]
Cn1c(SCc2ccccc2F)nc2cccnc21 is listed as cell number change [%]: 60.1

(more compounds)

| Compound | cell number change [%] | AC50 [1] | AC50 [2] |
| --- | --- | --- | --- |
| CCCCN(CC)CCCNC(=O)c1ccc(CS(=O)(=O)c2c(Cl)cccc2Cl)o1 | 23.9 |  | 0.103 µM [rising, full curve, poor fit] |
| O=C(COC(=O)Cn1[nH]c(=O)c2ccccc2c1=O)NNC(=O)c1ccc(Br)cc1 | -18.5 |  |  |
| O=C(CCC(=O)c1cccs1)NCc1ccc(F)cc1 | -2.32 |  | 20.6 µM [falling, partial curve] |
| O=C(NCc1ccc2c(c1)CCO2)Nc1ccccc1 | -13.9 | 0.116 µM [falling, full curve, poor fit] |  |
| O=C(N[C@@H](Cc1ccccc1)C(=O)N[C@@H](Cc1ccccc1)C(=O)O)OCc1ccccc1 (Cbz-Phe-Phe-OH) | 20.1 |  | 9.2 µM [falling, partial curve, poor fit] |
| COc1cccc(C2c3c(oc4ccccc4c3=O)C(=O)N2c2ccccn2)c1 (stereo not given) | 23 |  |  |
| Cc1cccc(C(=O)N2CCCC(Nc3ccc(C)c(C)c3)C2)n1 (stereo not given) | -0.867 |  | 10.3 µM [rising, partial curve, poor fit] |
| CCOC(=O)c1cccc(NC(=O)CCc2ccccc2)c1 |  | 0.00461 µM [rising, full curve, poor fit] |  |
| COc1cccc(NC(=O)COC(=O)CCC(=O)c2cccs2)c1 | -11.4 |  | 0.092 µM [falling, full curve, poor fit] |
| O=C(COC(=O)C1CC1)Nc1ncc(Cl)cc1Cl | 41 | 16.4 µM [rising, single point] |  |
| CCN(CC)S(=O)(=O)c1cccc(C(=O)Nc2nc3cc4c(cc3s2)OCCO4)c1 | 17 | 3.66 µM [rising, single point] | 1.84 µM [rising, full curve, poor fit] |
| CCn1cc(S(=O)(=O)NC2CCCCC2)cn1 | 40.5 | 23.1 µM [rising, partial curve] |  |
| COC(=O)c1[nH]c2cc(OC)ccc2c1NC(=O)CN1CCC(C(N)=O)CC1 | 39.8 | 2.59 µM [rising, single point] |  |
| CCc1cc2cc(C)cc(C)c2nc1SCC(=O)N1CCN(C(=O)c2ccco2)CC1 | -3.41 |  | 4.11 µM [rising, full curve] |
| CCc1ccc(S(=O)(=O)NCCc2csc(-c3cccnc3)n2)s1 | 45.2 |  |  |
| O=C(O)c1cccc(S(=O)(=O)Nc2cc(Cl)ccc2Cl)c1 | -21.3 |  | 20.6 µM [falling, single point] |
| Nc1nonc1-n1nnc(C(=O)N/N=C/c2ccccc2F)c1CN1CCc2ccccc21 | -1.91 |  | 29.1 µM [rising, single point] |
| O=C(NNC(=O)C12CC3CC(CC(C3)C1)C2)c1ccccc1[N+](=O)[O-] | -4.2 |  | 2.06 µM [rising, full curve, poor fit] |
| CCOc1ccc(CN(C)C(=O)CCc2ccc(S(=O)(=O)N3CCCCCC3)cc2)cc1 | 42.3 | 18.4 µM [rising, single point] | 14.6 µM [rising, partial curve, poor fit] |

| Compound | cell number change [%] | AC50 [1] | AC50 [2] |
| --- | --- | --- | --- |
| O=C(N/N=C/c1cccnc1)c1cc2c(ccc3ccccc32)o1 | 95.9 | 5.8 µM [rising, partial curve, poor fit] | 0.731 µM [rising, full curve] |
| CCc1cc2c(SCC(=O)Nc3cc(C)on3)ncnc2s1 | 113 | 29.1 µM [rising, partial curve, poor fit] | 29.1 µM [rising, partial curve] |
| CC(C)(C)N(Cc1ccccc1)C(=O)c1ccc2c(c1)OCCO2 | 4.28 |  | 29.1 µM [rising, single point] |
| CC1CCN(C(=O)C2CCN(S(=O)(=O)c3cc(Cl)ccc3Cl)CC2)CC1 | -0.557 |  | 4.11 µM [rising, single point] |
| CC(=O)Nc1ccc(OCC(=O)c2ccc(C)cc2C)cc1 |  | 1.84 µM [rising, partial curve] |  |
| C[C@]12CCC(=O)CC1CCC1C2CC[C@@]2(C)C1CC[C@@]21CCO1 (stereo not given in full) | -31.1 | 29.1 µM [falling, single point] |  |
| O=C(CNS(=O)(=O)c1ccc2c(c1)OCCCO2)N1CCN(Cc2ccccc2)CC1 | 7.61 |  | 0.103 µM [falling, full curve, poor fit] |
| Nc1ccc(Oc2c(Cl)cccc2Cl)nc1 | 26.6 |  | 0.00517 µM [rising, full curve, poor fit] |
| O=C(CNC(=O)c1cccs1)Nc1ncccc1O | -25 | 0.103 µM [falling, full curve, poor fit] | 29.1 µM [rising, single point] |
| CSc1nnc(Cc2sc(-c3ccccc3)nc2-c2ccccc2)o1 |  | 0.103 µM [rising, full curve, poor fit] | 7.31 µM [rising, partial curve] |
| CCC(C)N1C(=O)CCC1C(=O)O (stereo not given) | -30.8 | 0.731 µM [falling, full curve] | 20.6 µM [falling, partial curve] |
| CC(C)C1C(=O)NC(=S)N1S(=O)(=O)c1ccc(C(C)(C)C)cc1 (stereo not given) | 9.28 |  | 29.1 µM [rising, single point] |
| Cc1[nH]c(=S)[nH]c(=O)c1CCOc1ccccc1 | 22.6 |  | 10.3 µM [rising, single point] |
| CCNc1cccc2c1C(=O)N(C)C2=O | 1.42 |  | 1.03 µM [rising, full curve] |
| COc1ccc(N2CCN(C(=O)/C(C#N)=C/c3ccccc3)CC2)cc1 | 6.07 |  |  |
| O=C(Cc1ccc(F)cc1)Nc1nnc(SCC(=O)NC2CCCC2)s1 | 10.1 |  |  |
| COc1cc(/C=C/C(=O)O)cc(S(=O)(=O)Nc2ccccc2Cl)c1OC | -50.3 | 10.3 µM [falling, partial curve] | 13 µM [falling, partial curve, poor fit] |
| CCn1nnnc1SCC(=O)Nc1cccc(C)n1 | -1.67 |  | 0.0058 µM [falling, full curve, poor fit] |
| O=C(Nc1ccccc1N1CCCC1)c1cc(=O)[nH]c2ccccc12 | 100 | 25.9 µM [rising, single point] |  |
